Source: patent US20190367616A1
Positions count from the first letter of the chain named. These are yes or no findings as the source states them, for the method shown. Some entries that bind do so weakly or less than the wild type.

Chains of the proteins cited; added tags and fusions are not shown. Lines headed by an entry give the natural chain unless they say otherwise; changes in a name come on top. Residues count along the entry.
UniProt Q15116: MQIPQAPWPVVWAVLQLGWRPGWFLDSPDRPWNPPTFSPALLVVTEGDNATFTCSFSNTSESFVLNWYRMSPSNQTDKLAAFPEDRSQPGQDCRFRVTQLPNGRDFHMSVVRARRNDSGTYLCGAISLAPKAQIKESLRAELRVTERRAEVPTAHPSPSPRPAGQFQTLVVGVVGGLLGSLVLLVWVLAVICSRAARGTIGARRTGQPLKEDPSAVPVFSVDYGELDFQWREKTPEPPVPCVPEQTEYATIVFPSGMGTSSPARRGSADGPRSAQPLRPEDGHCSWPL
human PD-1 expressed on CHO-S cells: residues 25-288 of Q15116
human PD-1 ECD (Acro Biosystems cat. no. PD1-H52219): residues 25-170 of Q15116

Tests used:
[1] = biological target: human PD-1 ECD (Acro Biosystems cat. no. PD1-H52219) (human) (UniProt Q15116); experiment: SPR
[2] = biological target: cynomolgus PD-1 ECD (Acro Biosystems cat. no. PD1-05223) (cynomolgus) (UniProt B0LAJ3); experiment: SPR
[3] = biological target: human PD-1 expressed on CHO-S cells (human) (UniProt Q15116); experiment: flow cytometry PD-L1 blocking assay on CHO-S cells transiently expressing human PD-1; antibody 10 µg/ml final; blocked ligand R-PE PD-L1-Fc (16.4 nM final)

Measured: binding

B1: antibody 18098 (antibody, V domains shown)
VH: QVQLQESGGGLVRPGGSLRLSCAASGFTFSSFAMNWVRQAPGKGLVWVSTITGGGTTSYYADSVKGRFTISRDNSKSTLFLQMNSLRAEDTAVYYCAKWGSWSAGAFDIWGQGTTVTVSS
VL: DIQLTQSPSSVSASVGDRVTITCRASQGISSWLAWYQQKPGKAPKLLIYAASSLQSGVPSRFSGSGSGTDFTLTISSLQPEDFATYYCQQANSFPWTFGQGTKVEIKR
binds: all assays above

B2: antibody 18413 (antibody, V domains shown)
VH: EVQLVESGGGLVQPGGSLRLSCAASGFTFSSFVMSWVRQAPGKGLEWLSTISGGGGSTYYADSVKGRFTISRDNSKNTLYLQMNSLRAEDTAVYYCAKDWDLYYFDYWGQGTLVTVSS
VL: B1 VL with S12P, S31N, W96L, Q100G
binds: all assays above

B3: antibody 18325 (antibody, V domains shown)
VH: QVQLQQSGGGLVQPGGSLRLSCAASGFTFSSHVMNWVRQAPGKGLEWVATISGSGVDTYYADSVKGRFTISRGNSKNMLYLQMNSLRAEDTAVYYCAKWGSWSAGAFDIWGQGTMVTVSS
VL: B1 VL with D1E, Q3V
binds: all assays above

B4: antibody 18049 (antibody, V domains shown)
VH: QVQLVESGGGVVQPGRSLRLSCAASGFTFSNYGMHWVRQAPGKGLEWVAVIWYDGSDKYYADSVKGRFTISRDNSKNTLYLQMNSLRAEDTAVYYCAGGGNYYGDFWGQGTLVTVSS
VL: EIVMTQSPSSLSASVGDRVTITCRASQGIRNDLGWYQQKPGKAPKRLIYVASNLQSGVPSRFSGSGSGTEFTLTISSLQPEDFATYYCLQYNSYPWTFGQGTKVEIKR
binds: all assays above

B5: antibody 18113 (antibody, V domains shown)
VH: QVQLVESGGGLVKPGGSLRLSCAASGFTFSDYYMSWIRQAPGKGLEWVSYISSSGSTIYYADSAKGRFTISRDNAKNSLYLQMNSLRAEDTAVYYCARDTNWAFDYWGQGTLVTVSS
VL: DIQLTQSPDSLAVSLGERATINCKSSQSVFYSANNKNYLAWYQQKPGQPPKLLIYWTSTRESGVPDRFRGSGSGTDFTLTISSLQAEDVAVYYCQQFYSTPRTFGQGTKVEIKR
binds: all assays above
